Measured values from the supplement of paper PMC12823440, “Inhibitors supercharge kinase turnover through native proteolytic circuits” (Nature, 2025).
Where a name gives a salt, the structure may show the parent alone. The list shows a part of the results. The calls rarely recur for the same compound in another form.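 Kinases, fused to nanoluciferase, were expressed in K562 cells; luminescence was measured every 4 h from 2 to 18 h as percent of control (DMSO = 100%, positive control = 0%). A time point is decreased if signal falls significantly (2 sigma). Hits were called by the authors by a rule that is not shown; the count of time points alone does not decide it.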

By UniProt entry, the sequences of proteins in these tests, tags left out. Where a name states a change or a piece, a line headed by the entry shows the natural chain unless it says otherwise.
UniProt Q9UQM7, whole entry: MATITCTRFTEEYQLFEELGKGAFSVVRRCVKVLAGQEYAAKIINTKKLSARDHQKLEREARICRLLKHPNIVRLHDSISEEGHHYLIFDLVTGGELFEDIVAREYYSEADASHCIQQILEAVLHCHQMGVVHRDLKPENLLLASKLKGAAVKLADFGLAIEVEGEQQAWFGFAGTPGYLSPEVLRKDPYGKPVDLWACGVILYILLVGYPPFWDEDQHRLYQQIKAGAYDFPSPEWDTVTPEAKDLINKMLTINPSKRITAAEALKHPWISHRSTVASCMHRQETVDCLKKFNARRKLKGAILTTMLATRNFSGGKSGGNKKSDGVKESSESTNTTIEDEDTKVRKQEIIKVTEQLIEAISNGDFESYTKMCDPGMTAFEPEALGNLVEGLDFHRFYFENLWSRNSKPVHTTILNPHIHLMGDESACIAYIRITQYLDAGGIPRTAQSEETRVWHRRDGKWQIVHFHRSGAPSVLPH
UniProt Q13555: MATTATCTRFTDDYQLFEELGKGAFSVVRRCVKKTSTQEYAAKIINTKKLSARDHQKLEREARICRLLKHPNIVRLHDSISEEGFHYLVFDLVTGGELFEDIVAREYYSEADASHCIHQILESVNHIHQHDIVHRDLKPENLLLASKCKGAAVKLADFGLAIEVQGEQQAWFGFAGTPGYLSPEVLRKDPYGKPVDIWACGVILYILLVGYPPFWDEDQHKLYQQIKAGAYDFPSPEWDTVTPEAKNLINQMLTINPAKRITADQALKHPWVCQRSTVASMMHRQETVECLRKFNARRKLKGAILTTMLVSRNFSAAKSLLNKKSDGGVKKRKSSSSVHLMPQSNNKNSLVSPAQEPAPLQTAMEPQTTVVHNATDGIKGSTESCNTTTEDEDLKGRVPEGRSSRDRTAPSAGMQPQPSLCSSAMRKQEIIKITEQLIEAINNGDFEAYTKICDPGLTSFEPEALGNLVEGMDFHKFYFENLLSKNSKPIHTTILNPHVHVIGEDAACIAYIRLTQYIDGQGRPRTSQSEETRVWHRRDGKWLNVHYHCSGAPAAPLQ
UniProt Q15131: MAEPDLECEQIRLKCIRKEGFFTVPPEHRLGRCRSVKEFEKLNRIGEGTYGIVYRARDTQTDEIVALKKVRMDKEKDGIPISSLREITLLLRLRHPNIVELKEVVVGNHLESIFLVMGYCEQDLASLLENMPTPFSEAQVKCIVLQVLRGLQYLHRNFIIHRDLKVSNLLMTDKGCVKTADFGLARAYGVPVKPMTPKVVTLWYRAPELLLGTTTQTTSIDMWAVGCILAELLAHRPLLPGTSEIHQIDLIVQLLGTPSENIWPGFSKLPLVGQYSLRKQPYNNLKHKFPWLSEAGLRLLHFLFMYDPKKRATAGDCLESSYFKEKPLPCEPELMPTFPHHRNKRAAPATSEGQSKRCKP
UniProt P11802: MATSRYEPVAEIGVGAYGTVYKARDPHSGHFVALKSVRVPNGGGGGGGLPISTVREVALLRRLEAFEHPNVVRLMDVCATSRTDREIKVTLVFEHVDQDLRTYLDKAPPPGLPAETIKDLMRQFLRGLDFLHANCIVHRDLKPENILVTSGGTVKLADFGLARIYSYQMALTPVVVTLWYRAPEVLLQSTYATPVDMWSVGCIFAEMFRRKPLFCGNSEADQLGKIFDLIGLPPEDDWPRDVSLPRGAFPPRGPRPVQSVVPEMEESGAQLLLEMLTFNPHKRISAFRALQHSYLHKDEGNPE
UniProt P50613: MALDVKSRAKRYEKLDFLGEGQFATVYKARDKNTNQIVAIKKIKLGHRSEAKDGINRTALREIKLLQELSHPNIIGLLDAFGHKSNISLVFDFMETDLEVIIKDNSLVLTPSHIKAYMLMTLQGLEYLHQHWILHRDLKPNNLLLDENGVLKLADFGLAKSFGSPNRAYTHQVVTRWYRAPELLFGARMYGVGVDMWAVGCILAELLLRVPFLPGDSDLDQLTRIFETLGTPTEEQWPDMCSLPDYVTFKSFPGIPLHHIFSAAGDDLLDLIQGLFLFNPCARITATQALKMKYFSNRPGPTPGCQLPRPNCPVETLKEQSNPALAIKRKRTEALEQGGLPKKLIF
UniProt P50750, whole entry: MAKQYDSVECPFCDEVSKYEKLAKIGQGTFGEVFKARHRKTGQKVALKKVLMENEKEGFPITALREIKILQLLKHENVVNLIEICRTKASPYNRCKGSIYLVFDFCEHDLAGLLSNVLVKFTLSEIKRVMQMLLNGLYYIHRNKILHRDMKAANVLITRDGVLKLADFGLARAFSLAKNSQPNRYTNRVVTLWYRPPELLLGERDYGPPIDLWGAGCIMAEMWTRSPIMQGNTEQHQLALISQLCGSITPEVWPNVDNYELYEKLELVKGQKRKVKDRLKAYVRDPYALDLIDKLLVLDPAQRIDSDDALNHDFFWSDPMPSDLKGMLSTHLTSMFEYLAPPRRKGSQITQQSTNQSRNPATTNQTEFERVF
UniProt O96017, whole entry: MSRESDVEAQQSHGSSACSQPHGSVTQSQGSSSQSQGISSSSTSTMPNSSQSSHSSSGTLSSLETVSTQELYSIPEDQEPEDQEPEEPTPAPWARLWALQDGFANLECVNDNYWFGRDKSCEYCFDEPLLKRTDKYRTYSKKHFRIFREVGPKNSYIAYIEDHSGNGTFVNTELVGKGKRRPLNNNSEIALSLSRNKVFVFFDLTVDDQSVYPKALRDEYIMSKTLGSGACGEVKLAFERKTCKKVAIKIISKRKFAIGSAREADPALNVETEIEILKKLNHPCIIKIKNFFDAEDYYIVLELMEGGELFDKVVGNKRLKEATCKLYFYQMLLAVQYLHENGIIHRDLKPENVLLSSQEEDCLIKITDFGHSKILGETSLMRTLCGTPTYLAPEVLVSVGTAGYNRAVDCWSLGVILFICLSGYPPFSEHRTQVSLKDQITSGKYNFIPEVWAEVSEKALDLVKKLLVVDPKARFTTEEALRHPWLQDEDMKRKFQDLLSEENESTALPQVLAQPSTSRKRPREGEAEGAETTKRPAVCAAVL
UniProt P07333, whole entry: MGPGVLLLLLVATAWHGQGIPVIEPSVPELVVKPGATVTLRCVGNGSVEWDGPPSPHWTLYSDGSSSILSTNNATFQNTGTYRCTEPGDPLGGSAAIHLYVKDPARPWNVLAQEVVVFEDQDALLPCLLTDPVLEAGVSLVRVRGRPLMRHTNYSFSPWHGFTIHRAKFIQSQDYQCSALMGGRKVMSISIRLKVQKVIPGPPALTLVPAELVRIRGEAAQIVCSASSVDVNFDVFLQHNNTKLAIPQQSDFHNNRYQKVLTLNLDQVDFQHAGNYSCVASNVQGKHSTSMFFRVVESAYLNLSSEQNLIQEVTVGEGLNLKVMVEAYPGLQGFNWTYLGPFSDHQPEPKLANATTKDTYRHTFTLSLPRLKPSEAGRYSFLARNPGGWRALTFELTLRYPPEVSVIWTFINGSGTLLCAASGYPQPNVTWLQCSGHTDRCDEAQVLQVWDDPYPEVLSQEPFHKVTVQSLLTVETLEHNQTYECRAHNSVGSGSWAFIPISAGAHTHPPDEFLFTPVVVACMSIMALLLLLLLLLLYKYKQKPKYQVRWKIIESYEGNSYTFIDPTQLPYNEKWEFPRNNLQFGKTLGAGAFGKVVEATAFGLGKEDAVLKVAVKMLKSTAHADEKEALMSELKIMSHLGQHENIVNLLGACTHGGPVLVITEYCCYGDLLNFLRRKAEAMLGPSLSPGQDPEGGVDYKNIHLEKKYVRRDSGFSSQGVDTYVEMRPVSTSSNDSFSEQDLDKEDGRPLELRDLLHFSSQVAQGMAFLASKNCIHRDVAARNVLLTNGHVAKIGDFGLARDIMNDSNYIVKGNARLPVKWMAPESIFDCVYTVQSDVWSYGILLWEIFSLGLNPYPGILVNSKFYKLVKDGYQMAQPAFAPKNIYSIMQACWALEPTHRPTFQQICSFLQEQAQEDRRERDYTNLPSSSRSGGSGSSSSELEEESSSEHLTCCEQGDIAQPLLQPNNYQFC
UniProt P41240: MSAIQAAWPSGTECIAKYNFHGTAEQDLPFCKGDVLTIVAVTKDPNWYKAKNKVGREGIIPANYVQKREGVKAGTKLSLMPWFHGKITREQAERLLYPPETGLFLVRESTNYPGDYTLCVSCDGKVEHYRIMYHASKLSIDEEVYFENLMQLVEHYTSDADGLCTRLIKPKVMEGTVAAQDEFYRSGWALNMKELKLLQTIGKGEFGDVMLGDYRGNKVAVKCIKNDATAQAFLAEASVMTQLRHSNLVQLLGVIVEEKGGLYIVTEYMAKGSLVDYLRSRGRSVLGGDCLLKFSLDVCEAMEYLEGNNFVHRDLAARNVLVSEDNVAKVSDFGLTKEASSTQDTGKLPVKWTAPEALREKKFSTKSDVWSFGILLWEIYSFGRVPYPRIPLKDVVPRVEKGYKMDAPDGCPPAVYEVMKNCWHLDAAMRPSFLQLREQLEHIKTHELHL
UniProt P48730: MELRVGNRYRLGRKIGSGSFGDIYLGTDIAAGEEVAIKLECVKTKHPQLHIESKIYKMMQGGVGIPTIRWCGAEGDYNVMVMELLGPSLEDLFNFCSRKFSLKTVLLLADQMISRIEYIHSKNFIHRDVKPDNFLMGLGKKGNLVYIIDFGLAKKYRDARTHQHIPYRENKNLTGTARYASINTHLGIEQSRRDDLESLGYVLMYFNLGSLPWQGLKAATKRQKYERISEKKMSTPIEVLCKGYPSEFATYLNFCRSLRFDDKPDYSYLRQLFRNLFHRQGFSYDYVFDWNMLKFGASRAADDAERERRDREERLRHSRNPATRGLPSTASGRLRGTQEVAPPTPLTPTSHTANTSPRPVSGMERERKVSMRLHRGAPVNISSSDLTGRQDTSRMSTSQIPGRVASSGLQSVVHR
UniProt Q08345: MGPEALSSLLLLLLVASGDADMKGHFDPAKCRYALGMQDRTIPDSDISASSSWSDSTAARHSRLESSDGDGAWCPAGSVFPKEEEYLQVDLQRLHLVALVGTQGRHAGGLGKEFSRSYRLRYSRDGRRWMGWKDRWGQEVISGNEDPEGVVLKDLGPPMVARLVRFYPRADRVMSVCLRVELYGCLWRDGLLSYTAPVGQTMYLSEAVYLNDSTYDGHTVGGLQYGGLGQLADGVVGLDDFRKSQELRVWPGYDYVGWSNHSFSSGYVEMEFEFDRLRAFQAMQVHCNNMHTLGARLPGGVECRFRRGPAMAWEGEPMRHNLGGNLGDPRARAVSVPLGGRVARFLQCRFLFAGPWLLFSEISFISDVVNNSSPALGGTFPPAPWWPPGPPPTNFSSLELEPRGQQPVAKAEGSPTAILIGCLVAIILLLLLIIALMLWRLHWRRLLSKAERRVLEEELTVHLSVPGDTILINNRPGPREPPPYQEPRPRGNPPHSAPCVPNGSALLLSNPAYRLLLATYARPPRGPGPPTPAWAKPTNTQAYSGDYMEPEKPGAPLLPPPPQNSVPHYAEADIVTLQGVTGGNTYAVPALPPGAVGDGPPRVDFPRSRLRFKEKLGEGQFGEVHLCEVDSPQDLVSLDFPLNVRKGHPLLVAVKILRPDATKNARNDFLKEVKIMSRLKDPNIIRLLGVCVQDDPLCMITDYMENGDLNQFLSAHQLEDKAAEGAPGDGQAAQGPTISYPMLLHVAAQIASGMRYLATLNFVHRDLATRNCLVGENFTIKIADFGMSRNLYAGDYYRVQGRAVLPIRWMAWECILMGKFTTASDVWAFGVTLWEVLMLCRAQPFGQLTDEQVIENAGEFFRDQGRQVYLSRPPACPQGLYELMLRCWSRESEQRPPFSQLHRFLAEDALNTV
UniProt Q9Y463, whole entry, looked up: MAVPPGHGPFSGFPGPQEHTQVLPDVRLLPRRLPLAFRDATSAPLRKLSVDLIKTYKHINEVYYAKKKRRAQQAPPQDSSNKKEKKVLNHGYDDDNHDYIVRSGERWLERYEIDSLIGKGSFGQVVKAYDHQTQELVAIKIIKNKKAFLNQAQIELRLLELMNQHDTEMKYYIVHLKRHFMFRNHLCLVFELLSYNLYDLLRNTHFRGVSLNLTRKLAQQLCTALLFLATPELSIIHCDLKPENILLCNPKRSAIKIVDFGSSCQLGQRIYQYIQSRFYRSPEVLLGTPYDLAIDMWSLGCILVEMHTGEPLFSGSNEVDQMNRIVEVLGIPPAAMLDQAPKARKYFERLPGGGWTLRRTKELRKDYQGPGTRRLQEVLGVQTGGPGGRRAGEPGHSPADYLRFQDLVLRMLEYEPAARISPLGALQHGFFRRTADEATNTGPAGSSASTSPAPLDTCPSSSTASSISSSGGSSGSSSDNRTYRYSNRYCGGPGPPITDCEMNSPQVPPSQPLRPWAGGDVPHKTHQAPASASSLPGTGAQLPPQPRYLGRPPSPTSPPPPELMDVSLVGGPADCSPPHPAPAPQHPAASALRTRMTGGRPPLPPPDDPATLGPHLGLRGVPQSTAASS

Experiments:
Test in all cases: kinase-Nluc reporter destabilization hit call (1 = scored as downregulated) (binary); higher = compound decreases kinase abundance
Conditions in all cases: K562; 2-18 h
[1] = tested on: BRAF_V600E
[2] = molecular target: BTK (UniProt Q06187)
[3] = molecular target: CAMK2A (UniProt Q9UQM7)
[4] = molecular target: CAMK2G (UniProt Q13555)
[5] = molecular target: CDK10 (UniProt Q15131)
[6] = molecular target: CDK2 (UniProt P24941)
[7] = molecular target: CDK3 (UniProt Q00526)
[8] = molecular target: CDK4 (UniProt P11802)
[9] = molecular target: CDK5 (UniProt Q00535)
[10] = molecular target: CDK6 (UniProt Q00534)
[11] = molecular target: CDK7 (UniProt P50613)
[12] = molecular target: CDK9 (UniProt P50750)
[13] = molecular target: CHEK2 (UniProt O96017)
[14] = molecular target: CSF1R (UniProt P07333)
[15] = molecular target: CSK (UniProt P41240)
[16] = molecular target: CSNK1A1 (UniProt P48729)
[17] = molecular target: CSNK1D (UniProt P48730)
[18] = molecular target: DDR1 (UniProt Q08345)
[19] = molecular target: DYRK1B (UniProt Q9Y463)
[20] = molecular target: DYRK2 (UniProt Q92630)

Compound | kinase-Nluc reporter destabilization hit call [1] | kinase-Nluc reporter destabilization hit call [2] | kinase-Nluc reporter destabilization hit call [3] | kinase-Nluc reporter destabilization hit call [4] | kinase-Nluc reporter destabilization hit call [5] | kinase-Nluc reporter destabilization hit call [6] | kinase-Nluc reporter destabilization hit call [7] | kinase-Nluc reporter destabilization hit call [8] | kinase-Nluc reporter destabilization hit call [9] | kinase-Nluc reporter destabilization hit call [10] | kinase-Nluc reporter destabilization hit call [11] | kinase-Nluc reporter destabilization hit call [12] | kinase-Nluc reporter destabilization hit call [13] | kinase-Nluc reporter destabilization hit call [14] | kinase-Nluc reporter destabilization hit call [15] | kinase-Nluc reporter destabilization hit call [16] | kinase-Nluc reporter destabilization hit call [17] | kinase-Nluc reporter destabilization hit call [18] | kinase-Nluc reporter destabilization hit call [19] | kinase-Nluc reporter destabilization hit call [20]
CC1(C)Cc2c(sc(NC(=S)NC(=O)c3ccccc3)c2C(=O)O)CO1 (10 µM) | inactive: 0 | inactive: 0 | inactive: 0 | inactive: 0 | inactive: 0 | inactive: 0 | inactive: 0 | inactive: 0 | inactive: 0 | inactive: 0 | inactive: 0 | inactive: 0 | inactive: 0 | inactive: 0 | inactive: 0 | inactive: 0 | inactive: 0 | inactive: 0 | inactive: 0 | inactive: 0
O=C(Nc1cccc(Nc2ncc(Br)c(NCCc3cnc[nH]3)n2)c1)N1CCCC1 (10 µM) | inactive: 0 | inactive: 0 | inactive: 0 | inactive: 0 | inactive: 0 | inactive: 0 | inactive: 0 | inactive: 0 | inactive: 0 | inactive: 0 | inactive: 0 | inactive: 0 | inactive: 0 | inactive: 0 | inactive: 0 | inactive: 0 | inactive: 0 | inactive: 0 | inactive: 0 | inactive: 0
COc1c(Nc2cc(C)[nH]n2)nc(Sc2ccc(S(=O)(=O)Cc3cccc([N+](=O)[O-])c3F)cc2F)nc1N1CCCCC1 [Centrinone-B] (2.5 µM) | inactive: 0 | inactive: 0 | inactive: 0 | inactive: 0 | inactive: 0 | inactive: 0 | inactive: 0 | inactive: 0 | inactive: 0 | inactive: 0 | inactive: 0 | inactive: 0 | inactive: 0 | inactive: 0 | inactive: 0 | inactive: 0 | inactive: 0 | inactive: 0 | inactive: 0 | inactive: 0
Cn1cc(-c2cnc3cnn(S(=O)(=O)c4cnc5ccc(-c6cnn(C)c6)cn45)c3c2)cn1 [Glumetinib] (10 µM) | inactive: 0 | inactive: 0 | inactive: 0 | inactive: 0 | inactive: 0 | inactive: 0 | inactive: 0 | inactive: 0 | inactive: 0 | inactive: 0 | inactive: 0 | inactive: 0 | inactive: 0 | inactive: 0 | inactive: 0 | inactive: 0 | inactive: 0 | inactive: 0 | inactive: 0 | inactive: 0
C[C@@H]1CCNC(=O)c2cc3ccc(C(=O)Nc4nc5ccccc5n4CCCN(C)C)cc3n21 (10 µM) | inactive: 0 | inactive: 0 | inactive: 0 | inactive: 0 | inactive: 0 | inactive: 0 | inactive: 0 | inactive: 0 | inactive: 0 | inactive: 0 | inactive: 0 | inactive: 0 | inactive: 0 | inactive: 0 | inactive: 0 | inactive: 0 | inactive: 0 | inactive: 0 | inactive: 0 | inactive: 0
c1cc(NC2CCNCC2)nc(-c2cnc3ccccn23)c1 [IRAK inhibitor 1] (10 µM) | inactive: 0 | inactive: 0 | inactive: 0 | inactive: 0 | inactive: 0 | inactive: 0 | inactive: 0 | inactive: 0 | inactive: 0 | inactive: 0 | inactive: 0 | inactive: 0 | inactive: 0 | inactive: 0 | inactive: 0 | inactive: 0 | inactive: 0 | inactive: 0 | inactive: 0 | inactive: 0
COc1ccc(N=Nc2c(N)n[nH]c2N)cc1 (10 µM) | inactive: 0 | inactive: 0 | inactive: 0 | inactive: 0 | inactive: 0 | inactive: 0 | inactive: 0 | inactive: 0 | inactive: 0 | inactive: 0 | inactive: 0 | inactive: 0 | inactive: 0 | inactive: 0 | inactive: 0 | inactive: 0 | inactive: 0 | inactive: 0 | inactive: 0 | inactive: 0
CN(C)CCC=C1c2ccccc2CCc2ccccc21 [Amitriptyline (hydrochloride)] (2.5 µM) | inactive: 0 | inactive: 0 | inactive: 0 | inactive: 0 | inactive: 0 | inactive: 0 | inactive: 0 | inactive: 0 | inactive: 0 | inactive: 0 | inactive: 0 | inactive: 0 | inactive: 0 | inactive: 0 | inactive: 0 | inactive: 0 | inactive: 0 | inactive: 0 | inactive: 0 | inactive: 0
COc1cc2ncnc(Nc3ccccc3)c2cc1OC (10 µM) | inactive: 0 | inactive: 0 | inactive: 0 | inactive: 0 | inactive: 0 | inactive: 0 | inactive: 0 | inactive: 0 | inactive: 0 | inactive: 0 | inactive: 0 | inactive: 0 | inactive: 0 | inactive: 0 | inactive: 0 | inactive: 0 | inactive: 0 | inactive: 0 | inactive: 0 | inactive: 0
CC(C)(O)[C@H]1CC[C@H](Nc2ccc3ncc(-c4cccc(C(F)(F)F)c4)n3n2)CC1 (10 µM) | inactive: 0 | inactive: 0 | inactive: 0 | inactive: 0 | inactive: 0 | inactive: 0 | inactive: 0 | inactive: 0 | inactive: 0 | inactive: 0 | inactive: 0 | inactive: 0 | inactive: 0 | inactive: 0 | inactive: 0 | inactive: 0 | inactive: 0 | inactive: 0 | inactive: 0 | inactive: 0
c1ccc(-c2nc3c(c(-n4ccc5cnccc54)n2)CCC3)nc1 (10 µM) | inactive: 0 | inactive: 0 | inactive: 0 | inactive: 0 | inactive: 0 | inactive: 0 | inactive: 0 | inactive: 0 | inactive: 0 | inactive: 0 | inactive: 0 | inactive: 0 | inactive: 0 | inactive: 0 | inactive: 0 | inactive: 0 | inactive: 0 | inactive: 0 | inactive: 0 | inactive: 0
CN(C)c1nc2c(Br)c(Br)c(Br)c(Br)c2[nH]1 (10 µM) | inactive: 0 | inactive: 0 | inactive: 0 | inactive: 0 | inactive: 0 | inactive: 0 | inactive: 0 | inactive: 0 | inactive: 0 | inactive: 0 | inactive: 0 | inactive: 0 | inactive: 0 | inactive: 0 | inactive: 0 | inactive: 0 | inactive: 0 | inactive: 0 | inactive: 0 | inactive: 0
CC(=O)c1c(C)c2cnc(Nc3ccc(N4CCN(C(=O)CNc5cccc6c5C(=O)N(C5CCC(=O)NC5=O)C6=O)CC4)cn3)nc2n(C2CCCC2)c1=O (stereo not given) (10 µM) | inactive: 0 | inactive: 0 | inactive: 0 | inactive: 0 | inactive: 0 | inactive: 0 | inactive: 0 | active: 1 | inactive: 0 | active: 1 | inactive: 0 | inactive: 0 | inactive: 0 | inactive: 0 | inactive: 0 | inactive: 0 | inactive: 0 | inactive: 0 | inactive: 0 | inactive: 0
Nc1nccc(Oc2ccc(NC(=O)c3c[nH]cc(-c4ccc(F)cc4)c3=O)cc2F)c1Cl (10 µM) | inactive: 0 | inactive: 0 | inactive: 0 | inactive: 0 | inactive: 0 | inactive: 0 | inactive: 0 | inactive: 0 | inactive: 0 | inactive: 0 | active: 1 | inactive: 0 | inactive: 0 | active: 1 | inactive: 0 | inactive: 0 | inactive: 0 | inactive: 0 | inactive: 0 | inactive: 0
CN(c1ccc(NC(=O)Nc2ccc(OC(F)(F)F)cc2)cc1)c1ccnc(Nc2cccc(S(N)(=O)=O)c2)n1 (2.5 µM) | inactive: 0 | inactive: 0 | inactive: 0 | inactive: 0 | inactive: 0 | inactive: 0 | inactive: 0 | inactive: 0 | inactive: 0 | inactive: 0 | inactive: 0 | inactive: 0 | inactive: 0 | inactive: 0 | inactive: 0 | inactive: 0 | inactive: 0 | inactive: 0 | inactive: 0 | active: 1
Nc1ncnc2c1c(COc1cccc(Cl)c1)nn2C1CCOCC1 (10 µM) | inactive: 0 | inactive: 0 | inactive: 0 | inactive: 0 | inactive: 0 | inactive: 0 | inactive: 0 | inactive: 0 | inactive: 0 | inactive: 0 | inactive: 0 | inactive: 0 | inactive: 0 | inactive: 0 | inactive: 0 | inactive: 0 | inactive: 0 | inactive: 0 | inactive: 0 | inactive: 0
O=C(Nc1cccc(C(F)(F)F)c1)c1cccc2cc(Oc3cc(CO)ncn3)ccc12 (10 µM) | inactive: 0 | inactive: 0 | inactive: 0 | inactive: 0 | inactive: 0 | inactive: 0 | inactive: 0 | inactive: 0 | inactive: 0 | inactive: 0 | inactive: 0 | inactive: 0 | inactive: 0 | inactive: 0 | inactive: 0 | inactive: 0 | inactive: 0 | inactive: 0 | inactive: 0 | inactive: 0

Not a retest: an excerpt of the list.
Compound | kinase-Nluc reporter destabilization hit call [1] | kinase-Nluc reporter destabilization hit call [2] | kinase-Nluc reporter destabilization hit call [3] | kinase-Nluc reporter destabilization hit call [4] | kinase-Nluc reporter destabilization hit call [5] | kinase-Nluc reporter destabilization hit call [6] | kinase-Nluc reporter destabilization hit call [7] | kinase-Nluc reporter destabilization hit call [8] | kinase-Nluc reporter destabilization hit call [9] | kinase-Nluc reporter destabilization hit call [10] | kinase-Nluc reporter destabilization hit call [11] | kinase-Nluc reporter destabilization hit call [12] | kinase-Nluc reporter destabilization hit call [13] | kinase-Nluc reporter destabilization hit call [14] | kinase-Nluc reporter destabilization hit call [15] | kinase-Nluc reporter destabilization hit call [16] | kinase-Nluc reporter destabilization hit call [17] | kinase-Nluc reporter destabilization hit call [18] | kinase-Nluc reporter destabilization hit call [19] | kinase-Nluc reporter destabilization hit call [20]
c1cc(NC2CCNCC2)nc(-c2cnc3ccccn23)c1 [IRAK inhibitor 1] (10 µM) | inactive: 0 | inactive: 0 | inactive: 0 | inactive: 0 | inactive: 0 | inactive: 0 | inactive: 0 | inactive: 0 | inactive: 0 | inactive: 0 | inactive: 0 | inactive: 0 | inactive: 0 | inactive: 0 | inactive: 0 | inactive: 0 | inactive: 0 | inactive: 0 | inactive: 0 | inactive: 0
COc1ccc(N=Nc2c(N)n[nH]c2N)cc1 (10 µM) | inactive: 0 | inactive: 0 | inactive: 0 | inactive: 0 | inactive: 0 | inactive: 0 | inactive: 0 | inactive: 0 | inactive: 0 | inactive: 0 | inactive: 0 | inactive: 0 | inactive: 0 | inactive: 0 | inactive: 0 | inactive: 0 | inactive: 0 | inactive: 0 | inactive: 0 | inactive: 0
